Laboratory results as given in patent publication US20250177547A1, “PSMA-STEAP1 DUAL VARIABLE DOMAIN IMMUNOGLOBLIN (DVD-Ig) MOLECULES AND DRUG CONJUGATES” (AbbVie Inc., priority 2023, published 2025).
No constants are given. Whether binding was seen depends on the method and setting. Some entries that bind do so weakly or less than the wild type.

Amino acid sequences for entries named in this document (tags omitted). Residues count along the entry.
UniProt Q04609, residues 44-750: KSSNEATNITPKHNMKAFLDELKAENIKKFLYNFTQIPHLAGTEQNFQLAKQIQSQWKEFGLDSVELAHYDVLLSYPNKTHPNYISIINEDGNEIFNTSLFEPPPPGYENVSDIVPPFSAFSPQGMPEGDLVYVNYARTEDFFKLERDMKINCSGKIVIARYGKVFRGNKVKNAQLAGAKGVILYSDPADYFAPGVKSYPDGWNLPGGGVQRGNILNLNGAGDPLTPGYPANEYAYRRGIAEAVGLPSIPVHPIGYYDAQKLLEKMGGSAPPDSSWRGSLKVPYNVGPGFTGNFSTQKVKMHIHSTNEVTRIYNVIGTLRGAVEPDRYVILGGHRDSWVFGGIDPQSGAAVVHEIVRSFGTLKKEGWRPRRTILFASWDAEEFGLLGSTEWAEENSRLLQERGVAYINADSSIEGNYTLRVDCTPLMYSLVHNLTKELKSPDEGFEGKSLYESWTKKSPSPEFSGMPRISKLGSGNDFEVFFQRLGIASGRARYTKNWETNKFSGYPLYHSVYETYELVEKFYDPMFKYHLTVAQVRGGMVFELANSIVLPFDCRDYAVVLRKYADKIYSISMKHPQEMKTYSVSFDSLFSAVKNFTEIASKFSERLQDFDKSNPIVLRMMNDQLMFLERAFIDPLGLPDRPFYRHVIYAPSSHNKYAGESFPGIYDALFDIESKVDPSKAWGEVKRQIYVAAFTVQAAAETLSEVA

Biological target: PSMA as used in the Biacore assay (UniProt Q04609)
Assay: Biacore, kinetics of binding to PSMA

B1: DVD (clone 15) with the NG-to-NT mutation in HCDR2 of the PSMA binding domain (bispecific antibody, not shown: a dimerising Fc or GST; large carriers)
heavy: EVQLVESGGGVVQPGRSLRLSCVASGFPFNNYWMTWIRQAPGKGLEWIASITITGGTTYYPGSVKGRFTISRDNSKSTLYLQMNSLRAEDTAVYYCTRERYSTEYYPYYWYFDFWGQGTMVTVSSGGGGSGGGGSEVQLVQSGAEVKKPGSSVKVSCKASGYTFTDYYMNWVKQAPGKGLEWIGLINPSNTGTNYNQKFRDKATLTVDKSTSTAYMELSSLRSEDTAVYYCARRAQATSGDYWGQGTTVTVSS
light: DIQMTQSPSSLSASVGDRVTITCRTSQDIGNYLRWFQQKPGKSPKLMIYDAINLAAGVPSRFSGSGSGTDYTLTISSLQPEDVATYYCLQHNEYPYTFGQGTKLEIKRGGSGGGGSGDIQMTQSPSSLSASVGDRVTITCHASQNINVWLSWYQQKPGKAPKLLIYKASNLHTGVPSRFSGSGSGTDFTFTISSLQPEDIATYYCQQGQTYPLTFGGGTKVEIK
With B1 as the binder, how does the binding read?
Its binding is “binds”.
